This is one part of the list.
Compound: Cc1cc(ccc1-c1ccccc1)C(=O)N1CCCN(CC1)C(=O)CCl [compound 10]
Assay: probe-labelled cysteine peptide fold change vs DMSO (competition) (log2 fold change); higher = less target engagement (more negative = stronger competition)
Details: THP-1, incubation time: 4 h
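Note: competitive profiling in live THP-1 cells: cysteine peptides tagged with an iodoacetamide desthiobiotin (IA-DTB) probe, intensity after compound treatment relative to DMSO-treated cells.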

By UniProt entry, the sequences of proteins in these tests, tags left out. Where a name states a change or a piece, a line headed by the entry shows the natural chain unless it says otherwise.
UniProt Q8IX18: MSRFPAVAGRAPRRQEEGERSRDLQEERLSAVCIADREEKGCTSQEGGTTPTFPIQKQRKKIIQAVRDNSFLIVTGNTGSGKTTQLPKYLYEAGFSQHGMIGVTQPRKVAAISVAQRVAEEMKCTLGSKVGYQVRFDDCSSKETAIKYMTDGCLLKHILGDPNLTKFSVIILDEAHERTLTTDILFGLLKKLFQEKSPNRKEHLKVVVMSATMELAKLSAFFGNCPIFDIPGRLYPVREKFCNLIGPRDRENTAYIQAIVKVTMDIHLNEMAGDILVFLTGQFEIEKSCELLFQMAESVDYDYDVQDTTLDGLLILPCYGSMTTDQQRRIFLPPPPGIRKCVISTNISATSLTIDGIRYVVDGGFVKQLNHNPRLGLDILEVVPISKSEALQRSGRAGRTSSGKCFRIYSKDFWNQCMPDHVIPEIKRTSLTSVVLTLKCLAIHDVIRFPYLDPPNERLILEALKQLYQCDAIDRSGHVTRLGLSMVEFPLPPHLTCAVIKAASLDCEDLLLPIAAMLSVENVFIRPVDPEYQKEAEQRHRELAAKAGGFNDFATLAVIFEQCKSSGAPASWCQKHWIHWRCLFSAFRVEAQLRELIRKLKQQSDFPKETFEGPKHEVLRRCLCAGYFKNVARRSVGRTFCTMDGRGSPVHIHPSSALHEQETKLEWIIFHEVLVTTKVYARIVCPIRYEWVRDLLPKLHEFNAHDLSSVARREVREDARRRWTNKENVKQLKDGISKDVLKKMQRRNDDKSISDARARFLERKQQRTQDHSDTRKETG
UniProt Q99615: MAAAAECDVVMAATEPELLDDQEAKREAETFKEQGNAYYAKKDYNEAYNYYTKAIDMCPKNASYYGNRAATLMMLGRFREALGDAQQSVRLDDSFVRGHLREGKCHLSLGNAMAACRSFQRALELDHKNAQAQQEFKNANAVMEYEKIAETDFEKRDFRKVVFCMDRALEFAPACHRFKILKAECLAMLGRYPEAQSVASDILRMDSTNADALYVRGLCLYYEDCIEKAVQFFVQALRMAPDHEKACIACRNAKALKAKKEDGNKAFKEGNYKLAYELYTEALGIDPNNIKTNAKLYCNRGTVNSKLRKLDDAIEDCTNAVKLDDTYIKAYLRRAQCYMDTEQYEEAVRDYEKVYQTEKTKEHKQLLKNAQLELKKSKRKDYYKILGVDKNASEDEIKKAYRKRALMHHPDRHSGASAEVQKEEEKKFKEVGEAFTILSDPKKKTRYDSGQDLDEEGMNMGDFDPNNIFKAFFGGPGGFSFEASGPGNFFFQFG
UniProt Q96C10: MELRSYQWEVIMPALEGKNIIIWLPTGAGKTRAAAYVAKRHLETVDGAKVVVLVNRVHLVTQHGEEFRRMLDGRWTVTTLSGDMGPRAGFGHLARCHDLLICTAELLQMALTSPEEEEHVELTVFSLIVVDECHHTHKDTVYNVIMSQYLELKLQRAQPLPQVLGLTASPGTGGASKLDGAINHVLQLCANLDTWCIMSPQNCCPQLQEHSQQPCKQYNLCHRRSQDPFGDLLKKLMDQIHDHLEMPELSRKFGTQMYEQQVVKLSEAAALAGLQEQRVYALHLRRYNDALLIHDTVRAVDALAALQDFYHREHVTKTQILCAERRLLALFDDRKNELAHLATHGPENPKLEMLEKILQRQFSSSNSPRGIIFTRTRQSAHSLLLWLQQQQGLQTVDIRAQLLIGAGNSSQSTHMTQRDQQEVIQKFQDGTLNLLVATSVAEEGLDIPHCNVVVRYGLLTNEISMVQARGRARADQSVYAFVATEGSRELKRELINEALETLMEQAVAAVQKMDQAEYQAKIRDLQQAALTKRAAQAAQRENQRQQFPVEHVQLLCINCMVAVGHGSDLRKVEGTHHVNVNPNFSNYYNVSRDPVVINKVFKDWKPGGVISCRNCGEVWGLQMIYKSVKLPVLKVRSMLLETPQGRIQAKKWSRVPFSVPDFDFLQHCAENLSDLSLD
UniProt Q9H6R0: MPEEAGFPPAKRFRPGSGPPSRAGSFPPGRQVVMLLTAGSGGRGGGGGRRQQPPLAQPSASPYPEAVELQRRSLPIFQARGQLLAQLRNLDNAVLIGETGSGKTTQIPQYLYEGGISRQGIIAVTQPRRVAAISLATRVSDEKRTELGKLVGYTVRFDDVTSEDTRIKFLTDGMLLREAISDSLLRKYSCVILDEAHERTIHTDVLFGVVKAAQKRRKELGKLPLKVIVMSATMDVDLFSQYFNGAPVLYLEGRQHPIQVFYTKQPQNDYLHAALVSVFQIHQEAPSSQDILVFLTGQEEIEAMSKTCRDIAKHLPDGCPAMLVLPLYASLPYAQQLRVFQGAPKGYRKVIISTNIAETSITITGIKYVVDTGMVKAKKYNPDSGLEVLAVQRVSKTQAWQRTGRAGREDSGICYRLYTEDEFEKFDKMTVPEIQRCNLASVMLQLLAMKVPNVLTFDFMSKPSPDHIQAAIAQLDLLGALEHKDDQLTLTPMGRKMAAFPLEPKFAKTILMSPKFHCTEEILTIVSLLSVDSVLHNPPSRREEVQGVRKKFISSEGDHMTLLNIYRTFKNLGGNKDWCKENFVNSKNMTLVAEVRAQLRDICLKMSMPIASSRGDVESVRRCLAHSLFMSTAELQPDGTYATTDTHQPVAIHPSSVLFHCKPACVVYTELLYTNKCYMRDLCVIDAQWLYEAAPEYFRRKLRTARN
UniProt Q8IYB7: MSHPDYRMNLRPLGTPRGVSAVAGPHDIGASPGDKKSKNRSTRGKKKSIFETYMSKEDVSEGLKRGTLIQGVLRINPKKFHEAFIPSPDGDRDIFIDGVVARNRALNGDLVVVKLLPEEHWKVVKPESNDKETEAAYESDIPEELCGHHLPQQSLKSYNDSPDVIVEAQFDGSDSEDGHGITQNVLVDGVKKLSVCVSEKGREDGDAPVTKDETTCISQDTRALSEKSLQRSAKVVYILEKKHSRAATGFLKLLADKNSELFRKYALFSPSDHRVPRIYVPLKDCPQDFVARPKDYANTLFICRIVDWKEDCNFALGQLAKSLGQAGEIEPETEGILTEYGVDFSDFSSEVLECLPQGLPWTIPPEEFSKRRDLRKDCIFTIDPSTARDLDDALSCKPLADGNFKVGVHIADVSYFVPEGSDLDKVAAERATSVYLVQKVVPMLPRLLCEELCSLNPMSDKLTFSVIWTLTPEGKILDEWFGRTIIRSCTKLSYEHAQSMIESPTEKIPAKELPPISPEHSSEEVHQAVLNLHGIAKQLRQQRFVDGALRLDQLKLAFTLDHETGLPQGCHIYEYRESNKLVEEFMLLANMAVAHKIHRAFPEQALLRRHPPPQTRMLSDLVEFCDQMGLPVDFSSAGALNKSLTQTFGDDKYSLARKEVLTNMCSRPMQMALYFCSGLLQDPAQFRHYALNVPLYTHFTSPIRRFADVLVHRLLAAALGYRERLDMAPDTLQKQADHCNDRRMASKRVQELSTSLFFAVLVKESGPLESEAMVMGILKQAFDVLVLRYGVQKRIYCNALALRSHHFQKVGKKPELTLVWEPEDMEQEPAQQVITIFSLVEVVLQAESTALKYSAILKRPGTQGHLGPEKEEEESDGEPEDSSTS
UniProt Q7Z478: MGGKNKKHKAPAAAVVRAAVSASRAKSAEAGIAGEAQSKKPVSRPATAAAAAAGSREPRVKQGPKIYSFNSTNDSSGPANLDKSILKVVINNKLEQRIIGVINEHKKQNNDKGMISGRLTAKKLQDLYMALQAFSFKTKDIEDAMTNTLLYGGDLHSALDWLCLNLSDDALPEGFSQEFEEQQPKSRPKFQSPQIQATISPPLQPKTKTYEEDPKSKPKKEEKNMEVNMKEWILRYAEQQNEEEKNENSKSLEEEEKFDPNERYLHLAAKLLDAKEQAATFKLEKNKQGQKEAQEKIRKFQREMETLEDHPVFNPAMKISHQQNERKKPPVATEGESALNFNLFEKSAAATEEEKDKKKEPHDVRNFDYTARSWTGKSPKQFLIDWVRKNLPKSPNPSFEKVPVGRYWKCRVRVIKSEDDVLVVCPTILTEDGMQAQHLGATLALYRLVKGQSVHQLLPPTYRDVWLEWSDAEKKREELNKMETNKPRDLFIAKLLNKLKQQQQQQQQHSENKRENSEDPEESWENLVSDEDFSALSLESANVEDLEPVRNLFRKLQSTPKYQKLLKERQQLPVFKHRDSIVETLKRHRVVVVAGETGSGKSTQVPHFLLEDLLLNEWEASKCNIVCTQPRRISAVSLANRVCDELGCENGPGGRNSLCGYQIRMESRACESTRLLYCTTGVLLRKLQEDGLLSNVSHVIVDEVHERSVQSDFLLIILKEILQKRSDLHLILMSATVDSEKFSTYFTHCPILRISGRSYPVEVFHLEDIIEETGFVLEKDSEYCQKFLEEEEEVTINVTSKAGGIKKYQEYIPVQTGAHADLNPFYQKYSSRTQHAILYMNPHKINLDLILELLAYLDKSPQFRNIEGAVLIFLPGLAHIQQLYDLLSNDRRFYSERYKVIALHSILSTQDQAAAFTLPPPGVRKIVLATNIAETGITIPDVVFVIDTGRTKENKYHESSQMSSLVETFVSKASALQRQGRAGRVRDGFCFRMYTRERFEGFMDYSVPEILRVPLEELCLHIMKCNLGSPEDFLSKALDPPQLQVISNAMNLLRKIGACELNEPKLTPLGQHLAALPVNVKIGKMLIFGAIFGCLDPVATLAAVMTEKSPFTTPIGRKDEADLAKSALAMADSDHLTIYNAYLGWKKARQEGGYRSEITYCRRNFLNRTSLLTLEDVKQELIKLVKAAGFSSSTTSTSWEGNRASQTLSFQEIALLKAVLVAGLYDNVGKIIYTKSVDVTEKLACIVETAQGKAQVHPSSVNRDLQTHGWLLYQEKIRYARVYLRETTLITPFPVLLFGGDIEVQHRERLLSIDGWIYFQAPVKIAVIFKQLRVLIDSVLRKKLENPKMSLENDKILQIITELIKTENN
UniProt Q96EY1: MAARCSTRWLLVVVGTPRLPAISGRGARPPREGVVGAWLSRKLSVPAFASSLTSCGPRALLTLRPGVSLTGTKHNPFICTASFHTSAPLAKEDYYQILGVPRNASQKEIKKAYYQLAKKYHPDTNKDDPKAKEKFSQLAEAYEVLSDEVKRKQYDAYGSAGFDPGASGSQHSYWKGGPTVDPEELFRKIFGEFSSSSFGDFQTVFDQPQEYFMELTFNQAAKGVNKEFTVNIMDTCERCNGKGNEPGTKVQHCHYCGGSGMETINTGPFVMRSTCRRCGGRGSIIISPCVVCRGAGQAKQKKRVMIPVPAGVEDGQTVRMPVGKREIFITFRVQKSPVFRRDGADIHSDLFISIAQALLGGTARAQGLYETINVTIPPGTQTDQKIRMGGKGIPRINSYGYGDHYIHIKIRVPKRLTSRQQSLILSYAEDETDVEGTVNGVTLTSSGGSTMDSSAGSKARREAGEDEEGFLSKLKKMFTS
UniProt Q7L2E3: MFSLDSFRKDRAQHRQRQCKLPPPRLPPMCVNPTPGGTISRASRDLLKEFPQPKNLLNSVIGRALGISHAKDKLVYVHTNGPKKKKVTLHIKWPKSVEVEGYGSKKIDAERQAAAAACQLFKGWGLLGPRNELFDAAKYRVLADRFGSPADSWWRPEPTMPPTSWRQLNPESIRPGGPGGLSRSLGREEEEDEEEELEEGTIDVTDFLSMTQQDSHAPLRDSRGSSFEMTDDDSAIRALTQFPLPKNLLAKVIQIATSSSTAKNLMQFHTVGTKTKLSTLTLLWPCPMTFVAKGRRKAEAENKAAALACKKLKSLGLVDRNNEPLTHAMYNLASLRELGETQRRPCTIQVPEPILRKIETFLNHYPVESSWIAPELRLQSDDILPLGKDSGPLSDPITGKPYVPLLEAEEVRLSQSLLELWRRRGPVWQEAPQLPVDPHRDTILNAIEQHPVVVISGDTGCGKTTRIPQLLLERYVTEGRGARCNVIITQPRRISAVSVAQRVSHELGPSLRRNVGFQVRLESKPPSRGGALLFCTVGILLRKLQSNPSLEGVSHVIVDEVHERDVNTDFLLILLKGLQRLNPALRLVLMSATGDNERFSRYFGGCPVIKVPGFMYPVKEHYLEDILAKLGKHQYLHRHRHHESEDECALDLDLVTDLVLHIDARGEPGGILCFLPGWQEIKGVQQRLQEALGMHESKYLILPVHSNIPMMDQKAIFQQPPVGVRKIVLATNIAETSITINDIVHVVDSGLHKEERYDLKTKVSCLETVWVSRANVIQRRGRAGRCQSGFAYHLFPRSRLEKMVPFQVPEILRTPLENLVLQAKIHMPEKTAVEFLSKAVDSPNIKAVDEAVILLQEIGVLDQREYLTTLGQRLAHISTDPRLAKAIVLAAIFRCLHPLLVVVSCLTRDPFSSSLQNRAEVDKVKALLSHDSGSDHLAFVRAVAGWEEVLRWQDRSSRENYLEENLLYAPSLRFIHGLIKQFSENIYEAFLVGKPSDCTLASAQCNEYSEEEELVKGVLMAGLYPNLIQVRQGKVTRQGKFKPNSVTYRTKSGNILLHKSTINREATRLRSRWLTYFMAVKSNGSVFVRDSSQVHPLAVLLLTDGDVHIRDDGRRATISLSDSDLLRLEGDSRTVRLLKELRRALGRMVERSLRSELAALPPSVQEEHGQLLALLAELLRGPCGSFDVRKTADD

Target | probe-labelled cysteine peptide fold change (10 µM) | probe-labelled cysteine peptide fold change (50 µM)
DHX40_Q8IX18_497_LGLSMVEFPLPPHLTCAVIK (UniProt Q8IX18) | 0.0595 | -0.186
DHX8_Q14562_637_VSEEFGCCLGQEVGYTIR (UniProt Q14562) | 0.0281 | 0.569
DNAJC7_Q99615_337_RAQCYMDTEQYEEAVR (UniProt Q99615) | 0.159 | -0.215
DHX58_Q96C10_322_TQILCAER (UniProt Q96C10) | -0.169 | -0.332
DNAJC3_Q13217_184_ILEVCVWDAELR (UniProt Q13217) | 0.242 | 0.13
DHX33_Q9H6R0_319_HLPDGCPAMLVLPLYASLPYAQQLR (UniProt Q9H6R0) | 0.0557 | 0.0596
DIS3L2_Q8IYB7_146_ETEAAYESDIPEELCGHHLPQQSLK (UniProt Q8IYB7) | -0.329 | -0.228
DIAPH2_O60879_159_HECTLSSQEYVHELR (UniProt O60879) | -0.137 | -0.304
DHX29_Q7Z478_1245_LACIVETAQGK (UniProt Q7Z478) | 0.0041 | 0.378
DNAJA3_Q96EY1_289+292_GSIIISPCVVCR (UniProt Q96EY1) | -0.0622 | -0.0782
DNAJA1_P31689_150+153_GAVECCPNCR (UniProt P31689) | -0.00131 | -0.617
DIS3_Q9Y2L1_562_LAFSCIWEMNHNAEILK (UniProt Q9Y2L1) | 0.248 | -0.0681
DIS3L2_Q8IYB7_396_DLDDALSCK (UniProt Q8IYB7) | 0.0468 | 0.51
DHX30_Q7L2E3_1183_GPCGSFDVR (UniProt Q7L2E3) | 0.029 | 0.0114

Some of the entries so far, as a markdown table.

| Target | probe-labelled cysteine peptide fold change (10 µM) | probe-labelled cysteine peptide fold change (50 µM) |
| --- | --- | --- |
| DNAJC7_Q99615_337_RAQCYMDTEQYEEAVR (UniProt Q99615) | 0.159 | -0.215 |
| DHX58_Q96C10_322_TQILCAER (UniProt Q96C10) | -0.169 | -0.332 |

Source: the supplement of paper PMC12067093, “Discovery and optimisation of a covalent ligand for TRIM25 and its application to targeted protein ubiquitination” (Chemical Science, 2025)
